± gives the standard deviation of the averaged measurements. The entries are a selection whose mix differs from that of the whole data set. Small differences around the control level are noise.
Each target was assayed with Nc1ncnc2c1ncn2[C@@H]1O[C@H](COP(=O)(O)OP(=O)(O)NP(=O)(O)O)[C@@H](O)[C@H]1O [adenylyl imidodiphosphate] (assay: NP40-soluble protein abundance relative to vehicle (solubility fold change) (ratio); higher = more soluble protein in presence of AMP-PNP). Settings: concentration: 0.5mM.
Summary of the method: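 Jurkat crude lysate (Dounce-homogenised) was treated with eight concentrations from 0.1 to 10 mM for 10 min at room temperature, then 3 min at 37 °C. It was solubilised with 0.8% NP40 and benzonase (60 min, 4 °C) and ultracentrifuged, and the supernatant was TMT-labelled for LC-MS/MS. Intensities were vsn-normalised, and the value is the fold change against the NP40-processed vehicle per replicate, from three independent experiments.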

Sequences of proteins named here, by UniProt entry; tags and fusion partners are left off. A change or cut given only in a name is not applied to a line headed by its entry.
UniProt Q13685: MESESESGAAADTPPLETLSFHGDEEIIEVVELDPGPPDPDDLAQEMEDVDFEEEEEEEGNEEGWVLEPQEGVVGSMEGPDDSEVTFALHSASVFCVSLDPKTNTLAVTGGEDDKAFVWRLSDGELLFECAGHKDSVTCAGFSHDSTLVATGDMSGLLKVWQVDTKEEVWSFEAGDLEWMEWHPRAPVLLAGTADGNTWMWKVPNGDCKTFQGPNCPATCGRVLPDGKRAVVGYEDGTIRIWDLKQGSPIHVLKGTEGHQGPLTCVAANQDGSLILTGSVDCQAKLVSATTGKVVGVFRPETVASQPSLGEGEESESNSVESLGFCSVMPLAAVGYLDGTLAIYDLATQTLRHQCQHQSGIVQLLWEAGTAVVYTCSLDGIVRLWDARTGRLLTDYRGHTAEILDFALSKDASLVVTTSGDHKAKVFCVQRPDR
UniProt Q15853: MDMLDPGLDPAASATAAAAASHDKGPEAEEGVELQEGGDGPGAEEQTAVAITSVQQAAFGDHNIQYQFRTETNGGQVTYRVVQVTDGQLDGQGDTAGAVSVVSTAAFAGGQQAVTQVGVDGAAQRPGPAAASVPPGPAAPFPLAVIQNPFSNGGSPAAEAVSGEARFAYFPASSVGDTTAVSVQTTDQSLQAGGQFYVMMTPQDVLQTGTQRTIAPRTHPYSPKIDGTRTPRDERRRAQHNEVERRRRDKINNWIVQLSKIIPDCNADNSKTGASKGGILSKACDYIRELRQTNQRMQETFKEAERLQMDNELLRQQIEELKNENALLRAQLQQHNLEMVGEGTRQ
UniProt O14727: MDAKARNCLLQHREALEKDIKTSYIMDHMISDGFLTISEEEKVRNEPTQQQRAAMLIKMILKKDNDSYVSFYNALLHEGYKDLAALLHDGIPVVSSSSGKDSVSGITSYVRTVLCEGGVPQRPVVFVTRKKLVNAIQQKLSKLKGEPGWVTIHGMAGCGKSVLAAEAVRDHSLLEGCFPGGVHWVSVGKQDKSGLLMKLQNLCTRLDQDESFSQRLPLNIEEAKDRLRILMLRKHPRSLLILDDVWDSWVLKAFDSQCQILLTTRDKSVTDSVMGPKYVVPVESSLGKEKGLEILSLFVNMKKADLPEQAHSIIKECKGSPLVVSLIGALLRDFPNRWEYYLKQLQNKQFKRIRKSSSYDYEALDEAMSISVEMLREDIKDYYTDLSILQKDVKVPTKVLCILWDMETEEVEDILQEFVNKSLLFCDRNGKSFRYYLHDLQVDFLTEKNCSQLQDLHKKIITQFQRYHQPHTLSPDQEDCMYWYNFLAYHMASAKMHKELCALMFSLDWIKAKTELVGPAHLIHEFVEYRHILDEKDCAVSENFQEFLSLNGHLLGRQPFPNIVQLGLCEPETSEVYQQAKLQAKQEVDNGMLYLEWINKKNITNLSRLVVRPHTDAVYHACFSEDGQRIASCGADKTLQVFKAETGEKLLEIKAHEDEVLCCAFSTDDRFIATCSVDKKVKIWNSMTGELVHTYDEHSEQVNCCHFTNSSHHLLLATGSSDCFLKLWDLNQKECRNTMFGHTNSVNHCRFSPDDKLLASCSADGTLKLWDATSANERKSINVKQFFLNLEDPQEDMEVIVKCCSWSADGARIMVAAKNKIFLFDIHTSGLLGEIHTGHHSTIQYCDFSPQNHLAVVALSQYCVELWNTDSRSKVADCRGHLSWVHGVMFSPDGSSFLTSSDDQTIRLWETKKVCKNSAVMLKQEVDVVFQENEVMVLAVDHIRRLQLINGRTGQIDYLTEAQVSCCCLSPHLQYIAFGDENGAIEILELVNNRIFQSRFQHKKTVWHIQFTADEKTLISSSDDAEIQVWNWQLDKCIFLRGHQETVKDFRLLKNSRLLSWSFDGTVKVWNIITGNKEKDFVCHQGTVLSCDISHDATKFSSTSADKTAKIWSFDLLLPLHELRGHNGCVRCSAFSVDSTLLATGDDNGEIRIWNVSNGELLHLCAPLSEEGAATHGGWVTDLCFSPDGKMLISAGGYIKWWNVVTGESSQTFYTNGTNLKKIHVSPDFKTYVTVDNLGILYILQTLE
UniProt Q8NEZ3: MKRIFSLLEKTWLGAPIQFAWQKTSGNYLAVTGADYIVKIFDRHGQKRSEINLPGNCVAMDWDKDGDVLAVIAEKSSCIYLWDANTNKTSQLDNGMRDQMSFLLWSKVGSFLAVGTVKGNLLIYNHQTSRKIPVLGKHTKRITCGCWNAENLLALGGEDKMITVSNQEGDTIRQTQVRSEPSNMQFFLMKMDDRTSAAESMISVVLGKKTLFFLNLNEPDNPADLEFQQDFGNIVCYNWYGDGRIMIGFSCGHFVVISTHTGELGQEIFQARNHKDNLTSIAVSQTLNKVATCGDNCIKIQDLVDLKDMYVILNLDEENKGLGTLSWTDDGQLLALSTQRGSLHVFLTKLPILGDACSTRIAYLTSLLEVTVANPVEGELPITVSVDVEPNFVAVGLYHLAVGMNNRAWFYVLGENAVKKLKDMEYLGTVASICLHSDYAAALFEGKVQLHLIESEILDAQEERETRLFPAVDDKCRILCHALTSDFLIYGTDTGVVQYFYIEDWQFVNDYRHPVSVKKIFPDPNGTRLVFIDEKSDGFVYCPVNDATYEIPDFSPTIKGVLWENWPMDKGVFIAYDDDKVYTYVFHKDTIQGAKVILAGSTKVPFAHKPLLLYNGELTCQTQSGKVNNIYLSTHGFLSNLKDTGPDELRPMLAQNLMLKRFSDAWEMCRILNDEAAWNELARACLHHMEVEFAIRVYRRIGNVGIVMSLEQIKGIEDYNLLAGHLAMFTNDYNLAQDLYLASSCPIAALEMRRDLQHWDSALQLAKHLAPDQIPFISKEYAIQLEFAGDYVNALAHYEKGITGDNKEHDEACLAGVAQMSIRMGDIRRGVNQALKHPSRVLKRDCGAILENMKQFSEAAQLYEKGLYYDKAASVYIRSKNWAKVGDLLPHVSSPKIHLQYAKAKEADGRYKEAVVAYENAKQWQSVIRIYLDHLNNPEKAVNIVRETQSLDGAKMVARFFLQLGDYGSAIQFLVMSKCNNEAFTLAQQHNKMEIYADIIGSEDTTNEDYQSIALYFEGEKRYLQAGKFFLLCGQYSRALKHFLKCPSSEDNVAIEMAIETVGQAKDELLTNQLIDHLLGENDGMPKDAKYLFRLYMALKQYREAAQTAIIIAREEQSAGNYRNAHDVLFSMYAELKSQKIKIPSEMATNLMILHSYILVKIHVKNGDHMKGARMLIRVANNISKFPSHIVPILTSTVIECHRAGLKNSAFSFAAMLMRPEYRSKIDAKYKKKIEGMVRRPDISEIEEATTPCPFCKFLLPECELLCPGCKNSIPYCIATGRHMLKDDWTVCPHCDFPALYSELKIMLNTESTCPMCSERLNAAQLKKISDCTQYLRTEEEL
UniProt Q8N3X6: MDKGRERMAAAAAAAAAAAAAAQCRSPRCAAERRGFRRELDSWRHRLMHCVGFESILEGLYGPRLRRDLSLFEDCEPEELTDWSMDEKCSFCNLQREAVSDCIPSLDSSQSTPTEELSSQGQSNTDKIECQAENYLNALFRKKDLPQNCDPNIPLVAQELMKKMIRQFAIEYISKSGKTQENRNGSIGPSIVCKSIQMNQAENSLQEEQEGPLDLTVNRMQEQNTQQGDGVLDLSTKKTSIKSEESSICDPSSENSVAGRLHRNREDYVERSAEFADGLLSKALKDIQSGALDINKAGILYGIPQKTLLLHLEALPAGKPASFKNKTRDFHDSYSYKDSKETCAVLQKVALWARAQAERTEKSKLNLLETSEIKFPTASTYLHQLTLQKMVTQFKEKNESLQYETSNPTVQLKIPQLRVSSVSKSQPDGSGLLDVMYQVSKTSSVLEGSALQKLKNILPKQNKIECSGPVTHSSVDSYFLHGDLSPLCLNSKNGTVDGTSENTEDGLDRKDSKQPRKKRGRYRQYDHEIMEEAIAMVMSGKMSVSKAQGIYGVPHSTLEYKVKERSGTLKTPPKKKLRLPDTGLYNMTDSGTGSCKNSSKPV
UniProt Q8IYB3: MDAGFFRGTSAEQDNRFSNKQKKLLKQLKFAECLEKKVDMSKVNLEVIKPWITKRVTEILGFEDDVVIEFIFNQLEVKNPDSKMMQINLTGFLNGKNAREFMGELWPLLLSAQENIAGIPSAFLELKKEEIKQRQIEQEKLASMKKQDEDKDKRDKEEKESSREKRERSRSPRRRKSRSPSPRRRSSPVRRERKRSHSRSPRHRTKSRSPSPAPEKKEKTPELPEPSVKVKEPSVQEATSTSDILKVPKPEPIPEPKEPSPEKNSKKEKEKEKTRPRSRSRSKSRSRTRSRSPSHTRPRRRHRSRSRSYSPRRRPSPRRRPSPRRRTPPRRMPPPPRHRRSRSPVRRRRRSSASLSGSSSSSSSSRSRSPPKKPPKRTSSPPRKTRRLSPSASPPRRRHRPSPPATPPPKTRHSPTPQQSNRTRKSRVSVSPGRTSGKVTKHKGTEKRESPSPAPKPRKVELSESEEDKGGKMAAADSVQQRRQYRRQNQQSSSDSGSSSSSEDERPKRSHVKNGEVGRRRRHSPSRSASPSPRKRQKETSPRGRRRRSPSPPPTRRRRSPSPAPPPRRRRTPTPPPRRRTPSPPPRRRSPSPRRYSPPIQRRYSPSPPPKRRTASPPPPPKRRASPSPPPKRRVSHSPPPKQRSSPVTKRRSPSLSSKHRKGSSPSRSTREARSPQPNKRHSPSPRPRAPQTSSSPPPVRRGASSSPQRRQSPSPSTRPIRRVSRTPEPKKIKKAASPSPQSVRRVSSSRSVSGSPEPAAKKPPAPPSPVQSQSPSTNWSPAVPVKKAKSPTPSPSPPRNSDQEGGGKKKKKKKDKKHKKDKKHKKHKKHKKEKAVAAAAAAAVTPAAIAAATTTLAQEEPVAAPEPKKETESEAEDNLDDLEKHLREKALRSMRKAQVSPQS
UniProt P43487, whole entry: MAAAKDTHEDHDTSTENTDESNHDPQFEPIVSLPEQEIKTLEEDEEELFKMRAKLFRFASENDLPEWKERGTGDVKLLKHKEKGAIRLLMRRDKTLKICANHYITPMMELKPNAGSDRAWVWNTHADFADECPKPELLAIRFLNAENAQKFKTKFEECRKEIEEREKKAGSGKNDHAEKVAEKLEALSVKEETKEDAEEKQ
UniProt O60573: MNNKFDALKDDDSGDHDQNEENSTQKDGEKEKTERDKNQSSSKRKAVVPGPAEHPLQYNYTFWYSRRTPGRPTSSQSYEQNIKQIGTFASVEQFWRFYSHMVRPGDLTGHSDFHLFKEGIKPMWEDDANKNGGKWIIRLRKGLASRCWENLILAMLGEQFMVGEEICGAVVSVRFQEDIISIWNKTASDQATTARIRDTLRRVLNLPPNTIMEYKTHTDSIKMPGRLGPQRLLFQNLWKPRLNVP
UniProt Q6NSI4, whole entry: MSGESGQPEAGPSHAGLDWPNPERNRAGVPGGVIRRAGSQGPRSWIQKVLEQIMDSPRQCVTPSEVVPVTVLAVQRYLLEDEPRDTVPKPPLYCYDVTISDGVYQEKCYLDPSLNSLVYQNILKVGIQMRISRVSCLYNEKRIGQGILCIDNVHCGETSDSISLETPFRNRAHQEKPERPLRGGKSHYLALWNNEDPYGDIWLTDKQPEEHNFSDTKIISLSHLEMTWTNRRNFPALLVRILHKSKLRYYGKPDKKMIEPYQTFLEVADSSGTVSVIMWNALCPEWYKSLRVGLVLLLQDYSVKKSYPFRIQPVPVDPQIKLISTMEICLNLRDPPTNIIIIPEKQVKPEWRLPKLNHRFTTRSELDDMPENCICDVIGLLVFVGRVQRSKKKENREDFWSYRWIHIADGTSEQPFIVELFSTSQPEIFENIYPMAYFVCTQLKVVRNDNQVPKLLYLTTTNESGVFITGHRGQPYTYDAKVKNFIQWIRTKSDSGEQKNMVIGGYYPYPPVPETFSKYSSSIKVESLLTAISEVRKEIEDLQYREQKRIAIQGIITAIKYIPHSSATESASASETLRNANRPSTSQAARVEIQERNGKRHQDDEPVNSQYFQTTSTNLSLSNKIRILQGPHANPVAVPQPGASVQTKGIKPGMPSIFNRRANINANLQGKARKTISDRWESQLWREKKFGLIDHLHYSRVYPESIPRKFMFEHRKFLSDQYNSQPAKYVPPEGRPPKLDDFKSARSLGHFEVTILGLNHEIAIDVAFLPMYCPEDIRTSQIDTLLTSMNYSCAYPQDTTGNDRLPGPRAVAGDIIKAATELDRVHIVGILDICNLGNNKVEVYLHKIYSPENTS
UniProt Q9P289: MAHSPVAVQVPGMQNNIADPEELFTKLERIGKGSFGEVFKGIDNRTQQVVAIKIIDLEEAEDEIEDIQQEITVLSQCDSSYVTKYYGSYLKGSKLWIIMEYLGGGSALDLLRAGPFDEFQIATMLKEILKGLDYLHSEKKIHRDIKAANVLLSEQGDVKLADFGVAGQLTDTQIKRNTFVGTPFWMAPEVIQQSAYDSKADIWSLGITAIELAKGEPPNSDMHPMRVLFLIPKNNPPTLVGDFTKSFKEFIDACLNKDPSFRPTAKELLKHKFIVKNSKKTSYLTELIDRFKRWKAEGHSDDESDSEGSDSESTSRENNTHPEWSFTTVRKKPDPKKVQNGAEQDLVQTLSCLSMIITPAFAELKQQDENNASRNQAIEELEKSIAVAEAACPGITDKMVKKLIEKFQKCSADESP

Row | Target | NP40-soluble protein abundance
1 | A8K7Q2 and related entries (UniProt P11142) | 1.02 ± 0.06
2 | C9JEH3 and related entries (UniProt Q13685) | 1.04 ± 0.013
3 | A6PW57 and related entries (UniProt Q99755) | 1.0476 ± 0.00044
4 | B4DLJ1 and related entries (UniProt Q15853) | 1 ± 0.048
5 | B7Z683 and related entries (UniProt Q12979) | 0.9816 ± 0.0084
6 | E2QRN4 and related entries (UniProt Q5BKZ1) | 1.01 ± 0.076
7 | B7WPL9 and related entries (UniProt Q6PFW1) | 0.9894 ± 0.0074
8 | C9JLV4 and related entries (UniProt O14727) | 1.01 ± 0.057
9 | RCCD1 (UniProt A6NED2) | 1.04 ± 0.062
10 | B4DR80 and related entries (UniProt Q9Y6E0) | 0.997 ± 0.014
11 | B4DGU4 and related entries (UniProt P35222) | 1.01 ± 0.025
12 | B4DKB2 and related entries (UniProt P42892) | 1.04 ± 0.037
13 | B1AH77 and related entries (UniProt P15153) | 0.987 ± 0.072
14 | UniProt A4D161 and related entries | 1.01 ± 0.026
15 | B3KVK2 and related entries (UniProt P62873) | 0.94 ± 0.035
16 | B7ZBM8 and related entries (UniProt O14662) | 0.998 ± 0.028
17 | C9JIZ6 and related entries (UniProt P07602) | 1.01 ± 0.079
18 | C9IYN3 and related entries (UniProt Q8WVV9+D6W592+C9IYN3) | 0.985 ± 0.046
19 | D6RE75 and related entries (UniProt Q8NEZ3) | 0.975 ± 0.042

2 entries drawn at random from the list so far, as already listed:
Row | Target | NP40-soluble protein abundance
16 | B7ZBM8 and related entries (UniProt O14662) | 0.998 ± 0.028
11 | B4DGU4 and related entries (UniProt P35222) | 1.01 ± 0.025

(cont.)

Row | Target | NP40-soluble protein abundance
20 | C9JI46 and related entries (UniProt Q8N3X6) | 0.967 ± 0.049
21 | E5RG17 and related entries (UniProt Q6P1N9) | 0.981 ± 0.011
22 | A9Z1X7 and related entries (UniProt Q8IYB3) | 1.03 ± 0.031
23 | B1AK44 and related entries (UniProt Q9UI95) | 0.949 ± 0.023
24 | C9JJ34 and related entries (UniProt P43487) | 1.03 ± 0.1
25 | A6NF51 and related entries (UniProt O95861) | 1.03 ± 0.031
26 | B4DEM9 and related entries (UniProt Q9Y2S7) | 0.992 ± 0.065
27 | CCDC88B (UniProt A6NC98) | 0.991 ± 0.027
28 | A8MUM1 and related entries (UniProt Q53HC9) | 0.988 ± 0.058
29 | C9JAX1 and related entries (UniProt Q16595) | 0.95 ± 0.048
30 | B4E1E4 and related entries (UniProt O60573) | 0.948 ± 0.024
31 | B1AQ74 and related entries (UniProt Q6NSI4) | 0.996 ± 0.019
32 | C9JCC6 and related entries (UniProt Q14919) | 1.05 ± 0.14
33 | D6RAJ6 and related entries (UniProt Q9UKT5) | 1.01 ± 0.048
34 | B9A057 and related entries (UniProt Q86WW8) | 1.05 ± 0.018
35 | B7Z6D5 and related entries (UniProt Q96GQ7) | 1.03 ± 0.032
36 | C9J5C3 and related entries (UniProt Q9BUL8) | 1.04 ± 0.015
37 | B4E0Y9 and related entries (UniProt Q9P289) | 1.01 ± 0.004
